Source: PubChem BioAssay AID1259285 (Sanger Institute, 2017)

- Purpose: 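Search of the kinome for kinases worth combining with drugs in colon cancer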 (primary screen)
- Cell system: human HCC56 colorectal cancer cells
- Reagents: siRNA pool against human genes
- Challenge: DMSO vehicle, or anchor drug BYL719 at 1 µM, cetuximab at 5 µg/ml, or trametinib at 10 nM
- Detection: 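Viability as a ratio to non-targeting pool wells, averaged over replicates and turned into a robust z-score; synergy scores with BYL719, cetuximab or trametinib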
- Reading the numbers: viability robust z-score, no drug: higher = more viable cells, weaker knock-down effect
- Rule for the call: 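a knock-down counts as essential if its viability z-score without drug is under -3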
- Meaning of the calls: active = essential without drug; inactive = no change without drug
Shown is a random part of 794 reagents tested. Over the whole deposit, 20 (2.5%) were called active. 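Calls rest on the drug-free arm alone and ignore synergy scores; viability ratios seem to be capped at 1.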 Further read-outs or replicates are left out here. Reagent sequences are not shown. Not stated in the record: the amount of reagent, the time to read-out.

| target gene | viability robust z-score, no drug | activity call |
| --- | --- | --- |
| PI4KA (phosphatidylinositol 4-kinase alpha) | 0.458 | inactive |
| CDK11B (cyclin dependent kinase 11B) | 0.458 | inactive |
| IPPK (inositol-pentakisphosphate 2-kinase) | 0.458 | inactive |
| STK17B (serine/threonine kinase 17b) | -0.575 | inactive |
| CKMT1B (creatine kinase, mitochondrial 1B) | -1.62 | inactive |
| MKNK2 (MAPK interacting serine/threonine kinase 2) | 0.458 | inactive |
| CDKN2D (cyclin dependent kinase inhibitor 2D) | -2.47 | inactive |
| FGFR3 (fibroblast growth factor receptor 3) | 0.458 | inactive |
| DGKI (diacylglycerol kinase iota) | 0.458 | inactive |
| TP53BP1 (tumor protein p53 binding protein 1) | 0.458 | inactive |
| EFNA4 (ephrin A4) | 0.458 | inactive |
| CDKN1C (cyclin dependent kinase inhibitor 1C) | 0.32 | inactive |
| MVK (mevalonate kinase) | 0.458 | inactive |
| GTF2H1 (general transcription factor IIH subunit 1) | -3.07 | active |
| CDK11A (cyclin dependent kinase 11A) | -0.767 | inactive |
| DGUOK (deoxyguanosine kinase) | -3.05 | active |
| MAP3K9 (mitogen-activated protein kinase kinase kinase 9) | -0.652 | inactive |
| PRPS1 (phosphoribosyl pyrophosphate synthetase 1) | -0.112 | inactive |
| CRKL (CRK like proto-oncogene, adaptor protein) | -0.367 | inactive |
| AAK1 (AP2 associated kinase 1) | -0.789 | inactive |
| AK2 (adenylate kinase 2) | 0.458 | inactive |
| TYK2 (tyrosine kinase 2) | 0.458 | inactive |
| NEK10 (NIMA related kinase 10) | -0.836 | inactive |
| TLK1 (tousled like kinase 1) | 0.186 | inactive |
| YES1 (YES proto-oncogene 1, Src family tyrosine kinase) | 0.32 | inactive |
| TTBK1 (tau tubulin kinase 1) | 0.458 | inactive |
| NRBP2 (nuclear receptor binding protein 2) | -2.31 | inactive |
| CSNK2A2 (casein kinase 2 alpha 2) | 0.458 | inactive |
| NEK11 (NIMA related kinase 11) | -1.36 | inactive |
| AMHR2 (anti-Mullerian hormone receptor type 2) | -2.43 | inactive |
| TAB1 (TGF-beta activated kinase 1 (MAP3K7) binding protein 1) | 0.458 | inactive |
| ACVR1B (activin A receptor type 1B) | 0.458 | inactive |
| KDR (kinase insert domain receptor) | 0.458 | inactive |
| RBM10 (RNA binding motif protein 10) | 0.458 | inactive |
| SF3B1 (splicing factor 3b subunit 1) | -5.51 | active |
| RIPK3 (receptor interacting serine/threonine kinase 3) | 0.455 | inactive |
| PRKAG2 (protein kinase AMP-activated non-catalytic subunit gamma 2) | 0.458 | inactive |
| PIM3 (Pim-3 proto-oncogene, serine/threonine kinase) | 0.458 | inactive |
| MAP3K1 (mitogen-activated protein kinase kinase kinase 1) | 0.458 | inactive |
| CDK5R1 (cyclin dependent kinase 5 regulatory subunit 1) | 0.287 | inactive |
| KHK (ketohexokinase) | 0.458 | inactive |
| TP53 (tumor protein p53) | 0.222 | inactive |
| PFKP (phosphofructokinase, platelet) | 0.309 | inactive |
| PIKFYVE (phosphoinositide kinase, FYVE-type zinc finger containing) | 0.458 | inactive |
| CSNK1G3 (casein kinase 1 gamma 3) | 0.458 | inactive |
| EFNA5 (ephrin A5) | 0.458 | inactive |
| SKAP1 (src kinase associated phosphoprotein 1) | 0.458 | inactive |
| RPS6KA2 (ribosomal protein S6 kinase A2) | -2.73 | inactive |
| MAP2K3 (mitogen-activated protein kinase kinase 3) | -0.247 | inactive |
| GSK3A (glycogen synthase kinase 3 alpha) | -0.47 | inactive |
